The results in this text go back to article PMC8830656.

No constants are given. Whether binding was seen depends on the method and setting. Binding seen in cells or lysates may run through a third protein. Some binding calls cover weakened binding; strength is not graded here. Tags and fused reporters may be left off the sequences shown.

In assay [1] the target is T1, GPI-AP Gas1 tagged with GFP (yeast) (UniProt P22146).
T1 sequence (chain, GPI anchor (glycolipid)): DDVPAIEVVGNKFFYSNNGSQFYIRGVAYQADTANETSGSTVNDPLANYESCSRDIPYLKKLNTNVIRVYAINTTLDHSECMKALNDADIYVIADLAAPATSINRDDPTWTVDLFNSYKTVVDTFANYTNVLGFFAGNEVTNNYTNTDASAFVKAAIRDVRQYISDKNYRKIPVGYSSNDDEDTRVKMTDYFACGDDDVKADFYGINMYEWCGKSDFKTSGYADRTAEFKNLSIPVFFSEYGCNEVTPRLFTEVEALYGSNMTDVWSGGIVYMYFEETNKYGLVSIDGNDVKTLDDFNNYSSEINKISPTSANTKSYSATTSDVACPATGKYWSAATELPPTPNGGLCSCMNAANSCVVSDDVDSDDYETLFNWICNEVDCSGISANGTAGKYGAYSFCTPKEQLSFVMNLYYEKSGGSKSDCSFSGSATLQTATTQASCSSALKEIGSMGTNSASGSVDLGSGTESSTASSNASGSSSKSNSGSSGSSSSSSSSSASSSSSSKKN
Description: cross-linking + co-IP; extract of wild-type yeast strain incubated with the crosslinker DSP, solubilized with digitonin, Gas1-GFP immunoprecipitated with GFP-Trap, crosslinks cleaved under reducing conditions, immunoblotting.

Assay [2] addresses T1, GPI-AP Gas1 tagged with GFP (yeast). As to the kind of experiment: co-IP; extract of wild-type yeast strain without DSP, solubilized with digitonin, Gas1-GFP immunoprecipitated with GFP-Trap, immunoblotting.

B1: Sec24, the major COPII cargo binding isoform (protein, UniProt P40482 1-926)
chain: MSHHKKRVYPQAQLQYGQNATPLQQPAQFMPPQDPAAAGMSYGQMGMPPQGAVPSMGQQQFLTPAQEQLHQQIDQATTSMNDMHLHNVPLVDPNAYMQPQVPVQMGTPLQQQQQPMAAPAYGQPSAAMGQNMRPMNQLYPIDLLTELPPPITDLTLPPPPLVIPPERMLVPSELSNASPDYIRSTLNAVPKNSSLLKKSKLPFGLVIRPYQHLYDDIDPPPLNEDGLIVRCRRCRSYMNPFVTFIEQGRRWRCNFCRLANDVPMQMDQSDPNDPKSRYDRNEIKCAVMEYMAPKEYTLRQPPPATYCFLIDVSQSSIKSGLLATTINTLLQNLDSIPNHDERTRISILCVDNAIHYFKIPLDSENNEESADQINMMDIADLEEPFLPRPNSMVVSLKACRQNIETLLTKIPQIFQSNLITNFALGPALKSAYHLIGGVGGKIIVVSGTLPNLGIGKLQRRNESGVVNTSKETAQLLSCQDSFYKNFTIDCSKVQITVDLFLASEDYMDVASLSNLSRFTAGQTHFYPGFSGKNPNDIVKFSTEFAKHISMDFCMETVMRARGSTGLRMSRFYGHFFNRSSDLCAFSTMPRDQSYLFEVNVDESIMADYCYVQVAVLLSLNNSQRRIRIITLAMPTTESLAEVYASADQLAIASFYNSKAVEKALNSSLDDARVLINKSVQDILATYKKEIVVSNTAGGAPLRLCANLRMFPLLMHSLTKHMAFRSGIVPSDHRASALNNLESLPLKYLIKNIYPDVYSLHDMADEAGLPVQTEDGEATGTIVLPQPINATSSLFERYGLYLIDNGNELFLWMGGDAVPALVFDVFGTQDIFDIPIGKQEIPVVENSEFNQRVRNIINQLRNHDDVITYQSLYIVRGASLSEPVNHASAREVATLRLWASSTLVEDKILNNESYREFLQIMKARISK
Consider B1, for which the binding entry in assay [1] was “no binding”.

B2: p24 complex component Emp24 (protein, UniProt P32803 21-203)
chain: HNVLLPAYGRRCFFEDLSKGDELSISFQFGDRNPQSSSQLTGDFIIYGPERHEVLKTVRDTSHGEITLSAPYKGHFQYCFLNENTGIETKDVTFNIHGVVYVDLDDPNTNTLDSAVRKLSKLTREVKDEQSYIVIRERTHRNTAESTNDRVKWWSIFQLGVVIANSLFQIYYLRRFFEVTSLV
Take B2: the binding entry in assay [2] and in assay [1] was “binds” each time.

B3: unrelated cytosolic protein Pgk1 (protein, UniProt P00560 1-416)
chain: MSLSSKLSVQDLDLKDKRVFIRVDFNVPLDGKKITSNQRIVAALPTIKYVLEHHPRYVVLASHLGRPNGERNEKYSLAPVAKELQSLLGKDVTFLNDCVGPEVEAAVKASAPGSVILLENLRYHIEEEGSRKVDGQKVKASKEDVQKFRHELSSLADVYINDAFGTAHRAHSSMVGFDLPQRAAGFLLEKELKYFGKALENPTRPFLAILGGAKVADKIQLIDNLLDKVDSIIIGGGMAFTFKKVLENTEIGDSIFDKAGAEIVPKLMEKAKAKGVEVVLPVDFIIADAFSADANTKTVTDKEGIPAGWQGLDNGPESRKLFAATVAKAKTIVWNGPPGVFEFEKFAAGTKALLDEVVKSSAAGNTVIIGGGDTATVAKKYGVTDKISHVSTGGGASLELLEGKELPGVAFLSEKK
In the case of B3, the binding entry in assay [1] was “no binding”.
